# Experimental data taken from paper PMC10163288.
# Some of the results follow.
# B1: il10ra_site1_normal_mot_HHH_b2_08186_000000021_0001_43_56_H_._HHH_b1_05222_0001_0000100002_0000001_0 (protein)
# chain: SSSSSSEEELEELLKRIEEALEEGDPELVRRLLMEAARLAFRLRNPELLQAVWELLELLSSSSSS
# B2: il10ra_site1_normal_mot_HHH_b1_05860_000000142_0001_1_19_H_._HHH_b2_01495_0001_0000300030_0000001_0 (protein)
# chain: SSSSTEETREAYRLLREAQEALDDGDPEEARELLEEAERLLEEAGNLTVLHNVEYSLQLLDSSSS
# B3: il10ra_site1_normal_mot_HHH_b2_01310_000000089_0001_41_55_H_._HHH_b1_07630_af2_0002_0000100002_0000001_0_1_af2pred_0001 (protein)
# chain: SSSSDEEELEELIEEIEELIKQGNPEEAIRLLAELVRLALELGDEEVLKIAWRLAKLIKELSSSS
# B4: il10ra_site1_sap_16_mot_HHH_b2_02262_af2_000000007_0001_40_53_H_._HHH_b1_07372_0001_0000200031_0000001_1_0001 (protein)
# chain: SSSSTQEVAQLMFEALRLLVEGNPEEAEKVLEEAERLAQELNDPELEEYVRILKRFIESQSSSSS
# B5: il10ra_site1_normal_mot_HHH_b1_05056_000000217_0001_1_20_H_._HHH_b1_01534_0001_0000100004_0000002_0 (protein)
# chain: SSSSSEEVEELLEQARELAEEGDWREATELLQRATQHALRLQDPELLRLVWEVVQEVHELLSSSS
# B6: il10ra_site1_normal_mot_513c16ae44941e68898e0f7c259e5a28_0001_1_000000056_0001_35_50_H_._HHH_eva_0741_0001_0000400011_0000001_0 (protein)
# chain: SSSSSDEQVRELARAVFRLFEQGALDPRFVEESLEALLELLGDPEVEELLREAKEEAEERSSSSS
# B7: il10ra_site1_sap_7_mot_HHH_b2_02315_000000136_0001_19_35_H_._7c653bbcfd290f4ebb70a7ee4eba5725_0001_0001_0000400015_0000001_0_0001 (protein)
# chain: SSAEEVWQILVRIYAIAHEQGNEEVREEVRELLALLAEAQANNDEELEEEVKRLAEELAKRVESS
# B8: il10ra_site1_sap_21_mot_5d0551e3c4357af680d60aaa850e4cea_0001_1_af2_000000133_0001_18_33_H_._HHH_b2_07683_0001_0000300010_0000002_0_0001_af2pred_dldesign_0_af2p … (protein)
# chain: SSSSSPEAKEMAEKTKKYADFLLAAGAPELARRTLENAIHALTQAGDAEGVAELEALLARLSSSS
# B9: il10ra_site1_normal_mot_HHH_b2_08144_af2_000000046_0001_38_52_H_._HHH_b2_04130_0001_0000200019_0000001_0 (protein)
# chain: SSSSSSTEEAERVWELIRRAQQVSPEEAEELLREAEEIAEEANNELLLIQIEFAARRNSSSSSSS
# B10: il10ra_site1_normal_mot_HHH_b1_05056_000000217_0001_1_20_H_._HHH_b2_06881_af2_0001_0000500025_0000001_0 (protein)
# chain: SSSSSEEEERVEELLEEAKHIDDPEEAAEVLLEALRLAYELGDEELLREVWEVVKEVVKRLSSSS
# B11: il10ra_site1_normal_mot_HHH_b2_05797_000000294_0001_1_19_H_._HHH_b1_02457_0001_0000300030_0000002_0 (protein)
# chain: SSSSDEEVRELIEELEELREHVSPELEEYIENTLIFAKALLESGDPEAAERLLRAALQAIRSSSS
# B12: il10ra_site1_normal_mot_HHH_b1_06994_000000193_0001_40_55_H_._HHH_b2_02338_af2_0001_0000100002_0000001_0 (protein)
# chain: SSSSDQREELLRAAVRLIEQALEFGDERSARFLIFSAELLARELGDEETLEKIEELEKEVNSSSS
# B13: il10ra_site1_sap_17_mot_8756ee2cf497b5429c717dfc0c0bcfd6_0001_000000186_0001_1_13_H_._HHH_b1_05891_af2_0001_0000100001_0000001_0_0001_af2pred_0001 (protein)
# chain: SSSSDDEKFVRLTIRFARFLLEQGDREAARFFLEVALEIAERINNPELKEEIEELLEEVGSSSSS
# B14: il10ra_site1_normal_mot_HHH_b1_03333_000000091_0001_1_17_H_._HHH_b1_04956_af2_0001_0000400014_0000001_0 (protein)
# chain: SSSSDRYEEAKRLIERIIRLWEEGDDEEARRLLEELEELAKEAGNPSLEFAVRILEEIIDSSSSS
# B15: il10ra_site1_normal_mot_HHH_b1_07256_000000044_0001_1_17_H_._HHH_b2_06732_af2_0001_0000200009_0000001_0 (protein)
# chain: SSSSDEEHERALELIRRIARLAFRGDEEEARRLLEELEELVEKLGDPRLEWALRVLELALSSSSS
# B16: il10ra_site1_normal_mot_HHH_b2_00984_000000042_0001_1_20_H_._HHH_b2_01628_0001_0000200011_0000001_0 (protein)
# chain: SSSSSEEEEVEERVEELLERAKQIEDEEEVAELLLEATQLAIHANDRELLQEVWKVIKELSSSSS
# B17: il10ra_site1_normal_mot_HHH_b2_00277_af2_000000172_0001_1_17_H_._HHH_b2_03649_0001_0000500026_0000001_0_af2pred_0001 (protein)
# chain: SSSSSDEEFREEVERLLEEAEKIEDPREASYVATRAFALALRGNDPELERLVKEVAQKLASSSSS
# B18: il10ra_site1_normal_mot_HHH_b2_07006_000000108_0001_1_19_H_._HHH_b2_03643_0001_0000100004_0000001_0 (protein)
# chain: SSSSDEWYELVRRLIEEIVRLIREGNPEEAKRLIEELERLAEERNDFALRFVVRLLEQALKSSSS
# B19: il10ra_site1_normal_mot_8756ee2cf497b5429c717dfc0c0bcfd6_0001_000000186_0001_1_13_H_._HHH_b1_03452_af2_0001_0000100005_0000001_0_af2pred_0001 (protein)
# chain: SSSSDTQEVLRLLREAAELDHNGNPEEAEEVVERARELAEELNNLVLRAVAEFLEKIIRSSSSSS
# B20: il10ra_site1_sap_16_mot_HHH_b1_08282_000000046_0001_43_57_H_._HHH_b1_01753_0001_0000400015_0000001_0_0001 (protein)
# chain: DEELVELAQLLLEGDPHATMKLIHLYARIDQGDPEAERKLEEAIELAEELGDEDVVIILEALLEQ
# B21: il10ra_site1_normal_mot_HHH_b2_06199_000000213_0001_1_17_H_._HHH_b1_05925_0001_0000300042_0000001_0_af2pred_0001 (protein)
# chain: SSSSDEELLRLSLRFAKWLEEQGDPEAARFILEAALEIARDNGDEELVEEIEELLEKLRGSSSSS
# B22: il10ra_site1_normal_mot_8756ee2cf497b5429c717dfc0c0bcfd6_0001_000000186_0001_1_13_H_._HHH_b2_06285_af2_0001_0000300019_0000001_0 (protein)
# chain: SSSSSLEEEVYRLLREVSELDQEGDEEEAEKLLEEAEELAKEAGNDVFRVQVEYLLRLLKSSSSS
# B23: il10ra_site1_normal_mot_HHH_b2_01649_af2_000000191_0001_40_56_H_._HHH_b1_02852_0001_0000100001_0000002_0 (protein)
# chain: SSSSSLSEVALRFHARLLEDATKLGNEEEVELIVRHAKEALRALGDPEAVERLEEHFRELLSSSS
# B24: il10ra_site1_normal_mot_HHH_b2_00134_af2_000000004_0001_38_52_H_._HHH_b1_06808_0001_0000300021_0000002_0 (protein)
# chain: SSSSSSEIEEFVEELVRLFNLSEEQEKLLRKSARRQLEQGASEEDVEEALEFQARALHESSSSSS
# B25: il10ra_site1_sap_17_mot_HHH_b1_01563_af2_000000118_0001_40_54_H_._HHH_b1_07652_0001_0000800033_0000001_0_0001 (protein)
# chain: SSSSSDVEEEVRELLEEARRLAEEGDPEKAARSLQEAIRLAFRASNPELLRLVWEFLEELSSSSS
# B26: il10ra_site1_sap_23_mot_HHH_b2_06480_af2_000000075_0001_1_18_H_._HHH_b1_04601_0001_0000200014_0000001_0_0001 (protein)
# chain: SSSSSDVQEVFRLIEEAMELHHDGNPEEAQKVLEEAKEIAEELGNDVLRMVLEYLERKVNSSSSS
# B27: il10ra_site1_sap_19_mot_HHH_b2_02337_000000026_0001_38_52_H_._HHH_b2_05811_0001_0000500025_0000001_0_0001 (protein)
# chain: SSSSDESEEVLREAEELLEEAHERGDAELLFEIAERAIKRLLELGDPQAALELVRFFAQLSSSSS
# B28: il10ra_site1_normal_mot_6792f2186577ebd01aa11eb855ed7b57_0001_af2_000000149_0001_1_16_H_._5947cd9cf3e50e0a76f4b7a97d9f9fb0_0001_1_af2_0001_0000400004_0000002_0 (protein)
# chain: SLEEELEELLEELEKISPEARELIKEVKELLKKDESRALYLAARVAALLGDRRVAELLIELFIRL
# B29: il10ra_site1_normal_mot_HHH_b1_05254_000000006_0001_1_19_H_._HHH_b1_04999_0001_0000200014_0000001_0 (protein)
# chain: SSSSDELYEFAREAIELVIELLREGNPEEARKVVEELERLAEERNNHAVEWTARQLERDINSSSS
# B30: il10ra_site1_sap_16_mot_HHH_b1_07962_000000146_0001_41_55_H_._HHH_b2_04286_0001_0000100001_0000001_0_0001_af2pred_0001 (protein)
# chain: SSSSSSEEELEELLKELEEAIKRGDEELVEELMARIQILAARLNDPEAFQKALELWLKEFSSSSS
# B31: il10ra_site1_sap_18_mot_HHH_b2_03220_af2_000000223_0001_23_40_H_._HHH_b2_00756_af2_0001_0000200006_0000002_0_0001_af2pred_0001 (protein)
# chain: SSSSSSDEERERAEELFEQVEEDPRRAERLARELLELALRSRDPEILKLLLELAEELKKSSSSSS
# B32: il10ra_site1_normal_mot_HHH_b2_00315_000000062_0001_1_19_H_._HHH_b2_04021_0001_0000200018_0000001_0 (protein)
# chain: SSSSSDEEYSEAAKRFLRQLLEQGDEEALEILLHFAKEAAKALNDEELEEEVEEILRKLKSSSSS
# B33: il10ra_site1_sap_20_mot_0e2ed5c3f75edde9391a46279eb78c18_0001_000000219_0001_53_65_H_._HHH_b2_05869_0001_0000100006_0000001_0_0001 (protein)
# chain: SSSSAEEAYELAEEVVELVHKYQREGDERIRERIEELEELVEELGNRVVLWQIRWMLESLSSSSS
# B34: il10ra_site1_normal_mot_HHH_b1_07641_af2_000000285_0001_1_21_H_._HHH_b2_04981_0001_0000400032_0000002_0 (protein)
# chain: SSSSTEESEEVMRLLERASELDQEGDKEQAEELVEEAIELAREGGNELLTWQAEFLLRRIRSSSS
# B35: il10ra_site1_sap_11_mot_HHH_b1_05329_000000008_0001_43_56_H_._HHH_b2_02124_af2_0002_0000500021_0000001_0_0001 (protein)
# chain: SSSSDLEEQIEELREELREALERGDEELALELLQELLRLAFWTSDKELMRELWEAAHKLASSSSS
# B36: il10ra_site1_sap_13_mot_HHH_b2_06752_000000207_0001_1_21_H_._HHH_b1_06709_0001_0000100010_0000001_0_0001 (protein)
# chain: SSSSSEEFWERVNELLQRAARLYLRGNPEEAEELEEEAERLAKEGNNPEAEESVEHWKKVTSSSS
# B37: il10ra_site1_sap_17_mot_HHH_b2_01447_af2_000000258_0001_1_20_H_._HHH_b1_06135_af2_0001_0000100003_0000002_0_0001 (protein)
# chain: SSSSSDKEEVEERVEELLEEAEKIEDPEEAMRLLMEAIRLAYRLGDPELLHEIWRVLKEYSSSSS
# Target: il10ra, Q13651
# Assay: yeast display titration
row,Binder,apparent Kd
1,B1,inactive: no binding seen
2,B2,inactive: no binding seen
3,B3,inactive: no binding seen
4,B4,inactive: no binding seen
5,B5,inactive: no binding seen
6,B6,inactive: no binding seen
7,B7,inactive: no binding seen
8,B8,inactive: no binding seen
9,B9,inactive: no binding seen
10,B10,inactive: no binding seen
11,B11,inactive: no binding seen
12,B12,inactive: no binding seen
13,B13,inactive: no binding seen
14,B14,inactive: no binding seen
15,B15,inactive: no binding seen
16,B16,inactive: no binding seen
17,B17,inactive: no binding seen
18,B18,inactive: no binding seen
19,B19,inactive: no binding seen

row,Binder,apparent Kd
1,B20,inactive: no binding seen
2,B21,inactive: no binding seen
3,B22,inactive: no binding seen
4,B23,inactive: no binding seen
5,B24,inactive: no binding seen
6,B25,inactive: no binding seen
7,B26,inactive: no binding seen
8,B27,inactive: > 72.1 nM
9,B28,inactive: no binding seen
10,B29,inactive: no binding seen
11,B30,inactive: no binding seen
12,B31,inactive: no binding seen
13,B32,inactive: no binding seen
14,B33,inactive: no binding seen
15,B34,inactive: no binding seen
16,B35,inactive: no binding seen
17,B36,inactive: no binding seen
18,B37,inactive: no binding seen

# A stretch from further up:
row,Binder,apparent Kd
17,B36,inactive: no binding seen
18,B37,inactive: no binding seen
